Results from patent US20230217875A1, “IN VITRO EMBRYO RESCUE” (priority 2020, published 2023).
Some entries share one result that the patent states for a list of compounds.

Test system: Triploid Arabidopsis thaliana (Col-0) embryos
Experiment: in vitro embryo rescue of interploidy hybridization (Col 2x x Col 4x), embryo survival
Format: cell-based
Details: MS medium supplemented with 3% (w/v) sugar; embryos at torpedo stage; 14 days of in vitro culture (FIG. 1A)
Method: Seeds of Arabidopsis and Capsella were surface sterilized (5% sodium hypochlorite, 0.05% Triton X-100) for 10 min, washed three times in sterile ddH2O and then plated on half Murashige and Skoog (MS) medium, i.e., MS medium as defined below but half the concentration of the included ingredients. After stratification for 3 day at 4° C., plants were grown in a growth room under long-day photoperiod (16 hours light and 8 hours darkness) at 22° C. Eight-day-old seedlings were transferred to soil and plants were grown in a growth room at 60% humidity and daily cycles of 16 hours light at 22° C. and 8 hours darkness at 18° C. For crosses, designated female flower buds were emasculated, and the pistils hand-pollinated at 2 days after emasculation.
• 70% Ethanol; • Sterilizing solution (5% sodium hypochlorite+0.01% (v/v) of Triton X-100 or TWEEN® 20); • Autoclaved water; • Murashige & Skoog (MS) medium (Murashige and Skoog 1962): MS basal salt mixture 4.4 g/L, 0.7% plant agar, pH 5.8 and vitamins (glycine 2 mg/I, myo-inositol 100 mg/I, nicotinic acid 0.5 mg/I, pyridoxine HCl 0.5 mg/I and thiamine HCl 0.1 mg/I); • Nitsch medium (Nitsch & Nitsch 1969): basal salt mixture 2.1 g/L, 0.7% plant agar, pH 5.8 and vitamins (biotin 0.05 mg/I, folic acid 0.5 mg/I, glycine 2 mg/I, myo-inositol 100 mg/I, nicotinic acid 5 mg/I, pyridoxine HCl 0.5 mg/I and thiamine HCl 0.5 mg/I);
Triploid Arabidopsis seeds were derived from crossing diploid Arabidopsis females with tetraploid Arabidopsis pollen donors. Interspecific hybrid Capsella seeds were derived from crossing Capsella rubella females with Capsella grandiflora pollen donors. Hybrid embryos were isolated at the torpedo stage, at around 8 to 9 days after pollination (DAP) for Arabidopsis and 9 to 10 DAP for Capsella.
Under a sterile hood, the siliques of the crosses were incubated for 30 s in 70% ethanol, 30 s in sterilizing solution and 30 s in sterile water. […] Under a dissection microscope, the silique was opened with fine needles, and all seeds were transferred on the wet filter paper. […]

SMILES	embryo survival rate [%]
O=C(CO)[C@@H](O)[C@H](O)[C@H](O)CO [fructose]	≤ 10
O=C[C@H](O)[C@@H](O)[C@@H](O)[C@H](O)CO [galactose]	≤ 10
OC[C@H]1O[C@@](CO)(O[C@H]2O[C@H](CO)[C@@H](O)[C@H](O)[C@H]2O)[C@@H](O)[C@@H]1O [sucrose]	≤ 10
